Data taken from PMC3411842.
These are yes or no findings as the source states them, for the method shown. In cells and extracts the contact can be indirect. Some binding calls cover weakened binding; strength is not graded here. Where a sequence is shown, tags or fusion partners need not be part of it.

By UniProt entry, the sequences of proteins in these tests, tags left out. Residues count along the entry.
UniProt P70452, residues 1-274: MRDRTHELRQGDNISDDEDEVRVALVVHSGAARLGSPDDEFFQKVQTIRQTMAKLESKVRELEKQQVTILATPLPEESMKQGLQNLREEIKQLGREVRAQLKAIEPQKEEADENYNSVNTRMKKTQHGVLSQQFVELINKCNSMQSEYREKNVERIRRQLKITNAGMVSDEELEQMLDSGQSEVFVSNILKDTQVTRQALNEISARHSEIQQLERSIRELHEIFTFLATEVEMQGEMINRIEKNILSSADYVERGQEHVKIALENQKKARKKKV

Experiments:
[1] = target: GST-tagged syntaxin 4 (cytoplasmic portion) (UniProt P70452); assay: pull-down; purified GST-syntaxin 4 on glutathione sepharose beads mixed with RIPA lysate of CHO cells expressing Flag-Synip WT or ΔWW, cells serum starved 4 h, with or without 100 nM insulin for 15 min; 2 h at 4°C; anti-Flag immunoblot; only the target purified
[2] = target: GST-tagged syntaxin 4 (cytoplasmic portion) (UniProt P70452); assay: pull-down; purified GST-syntaxin 4 on glutathione sepharose beads mixed with RIPA lysate of 3T3L1 adipocytes expressing Flag-Synip WT or ΔWW, basal state (serum starved 4 h); 2 h at 4°C; anti-Flag immunoblot, band densities quantified (n = 3); only the target purified

binding [1]: binds
binding [2]: binds
B1: Flag-tagged Synip WT (syntaxin 4 interacting protein) (protein, UniProt Q9WV89 1-557)
chain: MSDGTASARSSSPLDRDPAFRVITVTKETGLGLKILGGINRNEGPLVYIHEVIPGGDCYKDGRLKPGDQLVSINKESMIGVSFEEAKSIITRAKLRSESPWEIAFIRQKSYCGHPGNICCPSPQVSEDCGPQTSTFTLLSSPSETLLPKTSSTPQTQDSTFPSCKAIQTKPEHDKTEHSPITSLDNSPADTSNADIAPAWTDDDSGPQGKISLNPSVRLKAEKLEMALNYLGIQPTKEQREALREQVQADSKGTVSFGDFVQVARSLFCLQLDEVNVGVHEIPSILDSQLLPCDSLEADEVGKLRQERNAALEERNVLKEKLLESEKHRKQLIEELQNVKQEAKAVAEETRALRSRIHLAEAAQRQAHGMEMDYEEVIRLLEAEVSELKAQLADYSDQNKESVQDLRKRVTVLDCQLRKSEMARKAFKASTERLLGFIEAIQEVLLDSSAPLSTLSERRAVLASQTSLPLLARNGRSFPATLLLESKELVRSVRAILDMDCLPYGWEEAYTADGIKYFINHVTQTTSWIHPVMSALNLSCAEESEEDCPRELTDPKS
